Laboratory results taken from patent US12534439B2, “Xanthohumol derivatives and methods for making and using” (Oregon State University, priority 2021, dated 2026).

Tested on: HFD-fed C57BL/6J mice
Experiment: Untargeted cortex LC-MS metabolomics
Assay type: in vivo
Protocol: Plasma and Cortex LC-MS Metabolomics. The left and right sides of the cortex were pooled and ground using liquid nitrogen. Cortex samples (approximately 30 mg) were extracted as previously described with slight modifications. Tissues were homogenized with 600 μL of cold 80% acetonitrile with 0.1% formic acid containing 0.2 μg/mL of dopamine-d4 (Sigma-Aldrich, St Louis, MO, USA) and 0.2 μg/mL of chlorpropamide (Sigma-Aldrich, St Louis, MO, USA) using a counter-top bullet blender for 2 min and centrifuged at 20 000 rpm for 10 minutes. Supernatants were transferred to high performance liquid chromatography (HPLC) vials for analysis.
LC-high-resolution mass spectrometry/MS. Data dependent acquisition in both negative and positive ion mode was conducted using a Shimadzu Nexera UPLC system coupled to an AB SCIEX TripleTOF 5600 mass spectrometer (AB SCIEX, Toronto, Canada). Chromatographic separation was conducted using an Inertsil Phenyl-3 column (4.6×150 mm, 100 Å, 5 μm; GL Sciences, Tokyo, Japan). Spray voltage was −4200 V for negative ion mode and 4500 V for positive ion mode acquisition. The injection volume was 3 μL. Metabolite identifications were performed using Progenesis QI software (V2.4.6911) with METLIN plugin V1.0.6499 (NonLinear Dynamics, United Kingdom). Progenesis QI was used for peak picking, retention time correction, data normalization, peak alignment, and metabolite annotations. Metabolites were detected in both ion modes; the one with the lowest coefficient of variation of the QC was kept.

With `COc1cc(O)c(CC=C(C)C)c(O)c1C(=O)/C=C/c1ccc(O)cc1` [XN, xanthohumol] the “Cortex metabolites significantly decreased by treatment” value was “S-adenosylmethionine (SAM), creatine, 3-phosphoglycerate, reduced glutathione (GSH), and neurotransmitters such as aspartate; also recorded: N-acetyl-aspartate (NAA), choline, carnitine, and oxidized glutathione (GSSG)”.
`COc1cc(O)c(CC=C(C)C)c(O)c1-c1cc(-c2ccc(O)cc2)n(C)n1` [XP, 4-(5-(4-hydroxyphenyl)-1-methyl-1H-pyrazol-3-yl)-5-methoxy-2-(3-methylbut-2-en-1-yl)benzene-1,3-diol] was tested, and the “Cortex metabolites significantly decreased by treatment” value was “S-adenosylmethionine (SAM), creatine, 3-phosphoglycerate, reduced glutathione (GSH), and neurotransmitters such as aspartate” and the “Increase in cortical IMP” value (versus control, p=0.006) was 76%.

“Also recorded” adds a separate entry of the source.
